Laboratory results: PubChem BioAssay AID504834 (National Center for Advancing Translational Sciences (NCATS), 2011)
The campaign covered roughly 320,000 compounds. About 22,000 (6.9%) were called active. Inconclusive results, whose numbers are uncertain, are shown with a selection of clear calls. The call rests on the fitted dose curve; in most records, active means well fitted inhibition curve with a large enough effect; inconclusive means small, poorly fitted or top-dose-only effect, or another doubt; inactive means no such curve, though single readings can be large or run the other way. Potencies beside an inconclusive call are fits to weak or partial responses and may not hold up.

Assay: Primary qHTS for delayed death inhibitors of the malarial parasite plastid, 96 hour incubation
Details: P. falciparum luciferase reporter growth; series mostly up to 28.7 µM; activity change, negative = inhibition: at the top concentration
Method in brief: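 Readout is luminescence from an integrated firefly luciferase in P. falciparum. Red cells, 2% hematocrit and 0.05% parasitemia final, were cultured with compound through two parasite generations (96 hours) at 37 C, 5% CO2.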
On the % scale 0 is the no-effect control and ±100 the full control effect; potency means the concentration at half of the fitted maximal effect.

Compound | Potency | activity change, negative = inhibition
Cc1ccccc1-n1c(SCc2c(C)noc2C)nnc1-c1ccncc1 | inconclusive: 18.5 µM [inhibitor, single point] | 
N/C(=N\O)c1ccccc1N1CCCCC1 | inconclusive: 11.7 µM [inhibitor, partial curve, poor fit] | 
COc1ccc(CCNC(=O)CC2SC(=NCCc3ccccc3)NC2=O)cc1 (stereo unspecified) | inconclusive: 0.738 µM [inhibitor, partial curve, poor fit] | 
CCCS(=O)(=O)N1CCC(C(=O)NCc2ccc(F)cc2)CC1 | inconclusive: 18.5 µM [inhibitor, single point] | 
O=C1CC(c2ccccc2)CC2=C1C=Nc1ccccc1N2 (stereo unspecified) | inconclusive: 10.4 µM [inhibitor, single point] | 
Cc1ccc(/C(O)=C2/C(=O)C(=O)N(c3ccccn3)C2c2ccc([N+](=O)[O-])cc2)cc1 (stereo unspecified) | inconclusive: 10.4 µM [inhibitor, single point] | 
CSc1cc(-c2ccc(Cl)cc2)c(C(=O)NN)s1 | active: 11.7 µM | 
COCCCN(CC(=O)O)S(=O)(=O)c1cccc(Cl)c1 |  | inactive: 16%
Cc1[nH]c2ccccc2c1/C=N/Nc1nc2ccccc2[nH]1 |  | inactive: 2.64%
CC1CCN(S(=O)(=O)c2ccc3c(c2)N(CC(=O)NCCCN2C(C)CCCC2C)C(=O)CO3)CC1 (stereo unspecified) |  | inactive: 28.5%
COc1cc(/C=C/C(=O)O)ccc1OCc1ccccc1C#N |  | inactive: 6.61%
Cc1cc(C)cc(Nc2c(F)c(F)c(F)c(F)c2C(=O)O)c1 |  | inactive: 201%
COc1cc(OC)cc(C(=O)N2CCN=C2SCc2cccnc2)c1 | inconclusive: 18.5 µM [inhibitor, single point] | 
CCOC(=O)c1ccc(NC(=O)NCc2ccccc2)cc1 | inconclusive: 18.5 µM [inhibitor, single point] | 
O=C(CN1C(=O)NC(c2ccccc2)(c2ccccc2)C1=O)NC1CCCCC1 |  | inactive: -3.74%
Cc1ccc(N(C(=O)CNC(=O)c2ccco2)C(C(=O)NCC2CCCO2)c2ccccc2)c(C)c1 (stereo unspecified) |  | inactive: 15.3%
COc1cc([C@@H]2c3cc4c(cc3[C@@H](OC)[C@H]3COC(=O)[C@H]23)OCO4)cc(OC)c1O | active: 11.7 µM | 
C=CCNC(=O)C1CCN(C(=O)c2ccc(-c3ccccc3)cc2)CC1 | inconclusive: 18.5 µM [inhibitor, single point] | 
Cn1c(O)c(N=NC(=O)c2cc(-c3cccs3)nc3ccccc23)c2ccccc21 | inconclusive: 10.4 µM [inhibitor, single point] | 
CC(/C=C1\SC(=S)N(CCC(=O)Nc2ccccc2O)C1=O)=C\c1ccccc1 | inconclusive: 4.15 µM [inhibitor, partial curve, poor fit] | 
CC1CCCCN1CCCNC(=O)c1ccc2nc(N3CCCCC3)sc2c1 (stereo unspecified) | inconclusive: 18.5 µM [inhibitor, single point] | 
CCn1ccnc1CN(C)Cc1nc(-c2ccccc2)no1 | inconclusive: 18.5 µM [inhibitor, single point] | 
Nc1c(N2CCN(c3ccccc3)CC2)c2ccccc2oc1=O |  | inactive: 2.58%

Entries from the list above that have an aryl thioether with sulfur outside any ring (2):
Compound | Potency | activity change, negative = inhibition
Cc1ccccc1-n1c(SCc2c(C)noc2C)nnc1-c1ccncc1 | inconclusive: 18.5 µM [inhibitor, single point] | 
CSc1cc(-c2ccc(Cl)cc2)c(C(=O)NN)s1 | active: 11.7 µM | 

Carrying on.

Compound | Potency | activity change, negative = inhibition
COc1ccc(C)cc1S(=O)(=O)N(CC(=O)N1CCCC1)c1ccccc1 | inconclusive: 18.5 µM [inhibitor, single point] | 
CC(C)(CO)C(O)C(=O)NCCC#N (stereo unspecified) | inconclusive: 0.0657 µM [inhibitor, full curve, poor fit] | 
Cc1ccc(C2C(C#N)=C(N)N(c3ncn[nH]3)C3=C2C(=O)CC(C)(C)C3)cc1 (stereo unspecified) | inconclusive: 18.5 µM [inhibitor, single point] | 
N/C(=N\N=C\c1ccc(Cl)cc1)N/N=C/c1ccc(Cl)cc1 | active: 0.849 µM | 
COC(=O)C1=CN(C)C=C(C(=O)OC)C1c1ccsc1 | inconclusive: 18.5 µM [inhibitor, single point] | 
COc1ccc(C(C)=O)cc1CSc1nc2cc(C(=O)O)ccc2c(=O)n1Cc1ccccc1 |  | inactive: -32.5%
CCN(CC)C(=O)CSc1nc(-c2ccc(C)cc2)nc2c1COC(C)(C)C2 | inconclusive: 6.57 µM [inhibitor, partial curve, poor fit] | 
CCCC(=O)n1nc(-c2cccnc2)nc1NCc1ccc(OC)cc1 | inconclusive: 10.4 µM [inhibitor, single point] | 
O=C(O)CC1Sc2nc3ccccc3n2C1=O (stereo unspecified) |  | inactive: 20.7%
O=C(COC(=O)c1ccc(OC(F)F)cc1)NCCC1=CCCCC1 |  | inactive: 17%
Cn1c(SCC(=O)NNC(=O)Cc2ccccc2)nnc1-c1ccccc1 |  | inactive: -29.4%
Cn1c(N)c(C(=O)CSc2n[nH]c(-c3ccccc3)n2)c(=O)n(C)c1=O | inconclusive: 5.22 µM [inhibitor, partial curve] | 
COc1ccc(C(O)P(=O)(OCC(C)C)c2ccc(N(C)C)cc2)c(OC)c1 (stereo unspecified) | inconclusive: 13.1 µM [inhibitor, partial curve, poor fit] | 
Cc1cc(NC(=O)c2ccc(N(C)S(=O)(=O)c3ccccc3)cc2)no1 | inconclusive: 0.522 µM [inhibitor, partial curve, poor fit] | 
CNC(=O)C(C#N)(Cc1cc(C(C)=O)ccc1OC)Cc1cc(C(C)=O)ccc1OC |  | inactive: -27.7%
N#Cc1c(-c2ccncc2)c2c([nH]c1=O)-c1ccccc1OC2 |  | inactive: -5.25%
COc1ccc(/C=N/Nc2cc(C)nc3c(C)cccc23)cc1 |  | inactive: -17.5%
COc1ccccc1C(=O)COC(=O)c1ccc(-n2cnnn2)cc1 | inconclusive: 11.7 µM [inhibitor, partial curve, poor fit] | 
CCN(CC(=O)NC(=O)NCc1ccccc1)CC(=O)Nc1cc(Cl)ccc1C | inconclusive: 18.5 µM [inhibitor, single point] | 
CCCCc1ccc(NC(=O)NCc2ccccn2)cc1 | inconclusive: 18.5 µM [inhibitor, single point] | 
COc1cccc(NS(=O)(=O)c2ccc3[nH]cc(C(=O)NCCC(C)C)c(=O)c3c2)c1 |  | inactive: 60.9%
OCCNCCSc1ccc(Cl)cc1 |  | inactive: 53.4%
CCCCC(=O)N1CCCC(c2nc3c(nnn3Cc3cc(C)ccc3C)c(=O)[nH]2)C1 (stereo unspecified) | inconclusive: 4.15 µM [inhibitor, partial curve, poor fit] | 
